The text below walks through data of the supplement of paper PMC4604168 (melanoma cell lines).

Some test systems named below: WM115; WM1716; WM1745; WM3526; WM3619; WM451Lu.
What all share (assay): cleaved PARP positive nuclei fraction relative to DMSO control; melanoma cells; higher = more apoptosis
Holding throughout (conditions): library dose: low library concentration; 72 h

This is one part of the list. Single values are uncertain, as repeats are few or missing.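 Imaging used 1,536-well plates; nuclei positive for cleaved PARP by antibody were divided by total DNA-stained nuclei to yield the apoptosis fraction. Doses for screening kept most cells viable, and cell lines differ markedly in resting and induced cleaved-PARP levels.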

In the case of `C[C@@H](N)c1ccc(C(=O)Nc2ccnc3[nH]ccc23)cc1` + O=S(=O)(c1ccccc1)N(CC(F)(F)F)c1ccc(C(O)(C(F)(F)F)C(F)(F)F)cc1 [T0901317] (first compound 0.4 µM, partner dose 1.4 µM), the “cleaved PARP positive nuclei fraction” value was determined as 326% in the experiment with WM115; 155% with WM1716; 125% in the experiment with WM1745; 77% in the experiment on WM3526; 93.6% in the experiment on WM3619; 61.9% in the experiment on WM451Lu.
Take `CC1(C)CCC(c2ccc(Cl)cc2)=C(CN2CCN(c3ccc(C(=O)NS(=O)(=O)c4ccc(N[C@H](CCN5CCOCC5)CSc5ccccc5)c(S(=O)(=O)C(F)(F)F)c4)cc3)CC2)C1` + Cn1nnc2c(C(N)=O)ncn2c1=O [temozolomide] (first compound 0.4 µM, partner dose 2 µM): the “cleaved PARP positive nuclei fraction” value with WM115 is 287%; in the experiment on WM1716 it was 146%; with WM1745, 986%; with WM3526, 87.1%; in the experiment on WM3619, 121%; in the experiment with WM451Lu, 109%.
As to `CC(=O)O[C@@]12CO[C@@H]1C[C@H](O)[C@@]1(C)C(=O)[C@H](O)C3=C(C)[C@@H](OC(=O)[C@H](O)[C@@H](NC(=O)OC(C)(C)C)c4ccccc4)C[C@@](O)([C@@H](OC(=O)c4ccccc4)[C@H]21)C3(C)C` [Docetaxel] + OCc1c[nH]c2ccccc12 [Indole-3-carbinol] (first compound 0.0001 µM, partner dose 0.8 µM), the “cleaved PARP positive nuclei fraction” value with WM115 stood at 305%; in the experiment with WM1716 it was 559%; in the experiment with WM1745 it was 170%; with WM3526, 134%; in the experiment with WM3619, 136%; in the experiment on WM451Lu, 161%.
For the compound `Cn1cnc2c(F)c(Nc3ccc(Br)cc3Cl)c(C(=O)NOCCO)cc21` [selumetinib] + Cc1cc(Nc2cc(N3CCN(C)CC3)nc(/C=C/c3ccccc3)n2)n[nH]1 [ENMD2076] (first compound 0.015 µM, partner dose 0.04 µM), the “cleaved PARP positive nuclei fraction” value in the experiment with WM115 is 102%; in the experiment on WM1716, 28.8%; with WM1745 it was 105%; in the experiment with WM3526 it was 62.4%; in the experiment on WM3619 it was 122%; with WM451Lu, 117%.
Turning to `Cn1sc(=O)n(Cc2ccccc2)c1=O` + Oc1nc(-c2ccc(C(F)(F)F)cc2)nc2c1CSCC2 [XAV939] (first compound 0.4 µM, partner dose 2 µM), the “cleaved PARP positive nuclei fraction” value in the experiment on WM115 was determined as 46.3%; with WM1716, 44%; with WM1745, 93.9%; in the experiment with WM3526, 85%; with WM3619, 97.2%; with WM451Lu, 212%.
As for `C[C@@H](N)c1ccc(C(=O)Nc2ccnc3[nH]ccc23)cc1` + Oc1cc(-c2nc(-c3ccccc3)[nH]c2-c2ccncc2)ccc1Cl [L779450] (first compound 0.4 µM, partner dose 0.2 µM), the “cleaved PARP positive nuclei fraction” value in the experiment with WM115 was determined as 145%; in the experiment with WM1716 it was 153%; in the experiment with WM1745, 147%; in the experiment on WM3526, 42.8%; in the experiment on WM3619, 90.5%; with WM451Lu, 49%.
On to `CC1(C)CCC(c2ccc(Cl)cc2)=C(CN2CCN(c3ccc(C(=O)NS(=O)(=O)c4ccc(N[C@H](CCN5CCOCC5)CSc5ccccc5)c(S(=O)(=O)C(F)(F)F)c4)cc3)CC2)C1` + O=S(=O)(c1ccccc1)N(CC(F)(F)F)c1ccc(C(O)(C(F)(F)F)C(F)(F)F)cc1 [T0901317] (first compound 0.4 µM, partner dose 1.4 µM), for which the “cleaved PARP positive nuclei fraction” value in the experiment on WM115 was 78.2%; in the experiment with WM1716 it was 171%; in the experiment with WM1745 it was 502%; in the experiment on WM3526, 180%; in the experiment on WM3619 it was 120%; in the experiment with WM451Lu, 143%.
`COc1ccc(C2=N[C@@H](c3ccc(Cl)cc3)[C@@H](c3ccc(Cl)cc3)N2C(=O)N2CCNC(=O)C2)c(OC(C)C)c1` [Nutlin-3] + COc1ccc(-c2ccc3c(N4CCOCC4)nc(N4C[C@@H](C)O[C@@H](C)C4)nc3n2)cc1CO [KU0063794] (first compound 0.1 µM, partner dose 0.02 µM): the “cleaved PARP positive nuclei fraction” value with WM115 worked out at 167%; with WM1716, 173%; in the experiment on WM1745, 91.8%; with WM3526, 85.6%; with WM3619, 119%; in the experiment with WM451Lu it was 99.6%.
Regarding `CCCCCCCCc1ccc(CCC(N)(CO)CO)cc1` [fingolimod] + CC(=O)O[C@@]12CO[C@@H]1C[C@H](O)[C@@]1(C)C(=O)[C@H](O)C3=C(C)[C@@H](OC(=O)[C@H](O)[C@@H](NC(=O)OC(C)(C)C)c4ccccc4)C[C@@](O)([C@@H](OC(=O)c4ccccc4)[C@H]21)C3(C)C [Docetaxel] (first compound 2 µM, partner dose 0.0001 µM), the “cleaved PARP positive nuclei fraction” value in the experiment with WM115 turned out to be 109%; with WM1716, 126%; in the experiment on WM1745, 147%; in the experiment with WM3526 it was 70.1%; with WM3619, 105%; in the experiment with WM451Lu, 233%.
`CN(c1ncccc1CNc1nc(Nc2ccc3c(c2)CC(=O)N3)ncc1C(F)(F)F)S(C)(=O)=O` + CC(C)C[C@H](NC(=O)[C@H](Cc1ccccc1)NC(=O)c1cnccn1)B(O)O [Bortezomib] (first compound 0.08 µM, partner dose 0.001 µM): the “cleaved PARP positive nuclei fraction” value with WM115 was 189%; in the experiment with WM1716, 323%; in the experiment with WM1745 it was 141%; with WM3526, 48.5%; in the experiment with WM3619, 426%; in the experiment with WM451Lu, 54.9%.
